Data as given in PubChem BioAssay AID1224826 (NIAID, 2016).

Aim: 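Regulators of Tlr4 signalling leading to Tnf-alpha expression in macrophages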 (primary screen)
Cell system: RAW264.7 G9 macrophages from mouse bearing reporters for p65 (GFP) and the Tnf promoter (mCherry)
Knock-down reagent: siRNA pool against mouse genes, 100 nM
Time to read-out: 16 h of LPS stimulation, after 2 days of siRNA transfection
Treatment: bacterial lipopolysaccharide (Salmonella minnesota R595), 10 ng/ml
Measurement: 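Imaged Tnf reporter mCherry in nuclei, minus background, normalised per plate to the median and expressed as robust z-scores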
Scale: Tnf reporter robust z-score: higher = stronger Tnf promoter reporter signal after LPS; Tnf reporter intensity: higher = stronger Tnf promoter reporter signal
Rule for the call: 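a well counts as active at a score of -1.3 or below (Tlr4 knock-down control median) or above 3 (raised signal); controls and wells holding fewer than 50 cells are excluded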
Meaning of the calls: active = Tnf reporter clearly lowered or raised; inactive = no clear change in Tnf reporter
The whole screen tested about 17,000 reagents; this is a random part of them. In the full data, about 1,110 (6.6%) are marked active. 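Active means lowered or raised reporter signal; replicate intensities are raw and not normalised per plate.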 A number with no mark means an inactive call.

gene | PubChem SID | Tnf reporter robust z-score | fewer than 50 cells in well | Tnf reporter intensity, replicate 1 | Tnf reporter intensity, replicate 2
Cbln1 (cerebellin 1 precursor protein) | SID315465796 | -0.36 | enough cells in well | 122 | 186
Osmr (oncostatin M receptor) | SID315468352 | -0.23 | enough cells in well | 226 | 165
Nme1 (NME/NM23 nucleoside diphosphate kinase 1) | SID315468190 | – | fewer than 50 cells per well; well left out of calls | 120 | 130
Bid (BH3 interacting domain death agonist) | SID315465636 | -0.58 | enough cells in well | 122 | 138
Cetn4 (centrin 4) | SID315477472 | -0.82 | enough cells in well | 83.3 | 176
Or8d2b (olfactory receptor family 8 subfamily D member 2D) | SID315480456 | 0.53 | enough cells in well | 224 | 108
Lix1 (limb and CNS expressed 1) | SID315472560 | 1.51 | enough cells in well | 308 | 203
Phlda3 (pleckstrin homology like domain, family A, member 3) | SID315470567 | 1.15 | enough cells in well | 354 | 255
Terf1 (telomeric repeat binding factor 1) | SID315469662 | -0.62 | enough cells in well | 209 | 90.6
Aadacl2fm1 (AADACL2 family member 1) | SID315478700 | -0.3 | enough cells in well | 129 | 101
Rab10os (RAB10, member RAS oncogene family, opposite strand) | SID315474886 | 0.84 | enough cells in well | 285 | 104
Tomm22 (translocase of outer mitochondrial membrane 22) | SID315478281 | 2.16 | enough cells in well | 183 | 179
Sertm1 (serine rich and transmembrane domain containing 1) | SID315481541 | 1.62 | enough cells in well | 297 | 204
Acsm2 (acyl-CoA synthetase medium-chain family member 2) | SID315479103 | -0.92 | enough cells in well | 131 | 156
Rae1 (ribonucleic acid export 1) | SID315472579 | -0.7 | enough cells in well | 82.1 | 116
Olah (oleoyl-ACP hydrolase) | SID315476163 | 0.53 | enough cells in well | 242 | 179
Fbxo32 (F-box protein 32) | SID315473197 | -0.88 | enough cells in well | 164 | 160
Gabarapl1 (GABA type A receptor associated protein like 1) | SID315471789 | -0.93 | enough cells in well | 169 | 169
Pira1 (paired-Ig-like receptor A1) | SID315468523 | 0.87 | enough cells in well | 166 | 169
Rab11b (RAB11B, member RAS oncogene family) | SID315468844 | -0.3 | enough cells in well | 267 | 191
Rab11b (RAB11B, member RAS oncogene family) | SID315468845 | 3.38 (active) | enough cells in well | 331 | 366
Osbpl1a (oxysterol binding protein-like 1A) | SID315472081 | 0.1 | enough cells in well | 239 | 196
Osbpl1a (oxysterol binding protein-like 1A) | SID315481905 | -0.79 | enough cells in well | 176 | 78.3
Ap1s2 (adaptor-related protein complex 1, sigma 2 subunit) | SID315476666 | 0.17 | enough cells in well | 244 | 173
Hcrtr1 (hypocretin (orexin) receptor 1) | SID315478824 | 0.41 | enough cells in well | 251 | 232
Or2aj6 (olfactory receptor family 2 subfamily AJ member 6) | SID315480577 | 2.38 | enough cells in well | 332 | 214
Aass (aminoadipate-semialdehyde synthase) | SID315470789 | 1.03 | enough cells in well | 192 | 236
Med20 (mediator complex subunit 20) | SID315471676 | -0.5 | enough cells in well | 104 | 70
Pum1 (pumilio RNA-binding family member 1) | SID315475758 | 0.69 | enough cells in well | 151 | 169
Or11g25 (olfactory receptor family 11 subfamily G member 25) | SID315479941 | -0.64 | enough cells in well | 78.7 | 33.7
Tspyl4 (TSPY-like 4) | SID315474560 | – | fewer than 50 cells per well; well left out of calls | 252 | 64.4
Nt5e (5' nucleotidase, ecto) | SID315470254 | -0.13 | enough cells in well | 252 | 157

Ordered by “Tnf reporter intensity, replicate 1” (highest first): 9 of the entries above
gene | PubChem SID | Tnf reporter robust z-score | fewer than 50 cells in well | Tnf reporter intensity, replicate 1 | Tnf reporter intensity, replicate 2
Or2aj6 (olfactory receptor family 2 subfamily AJ member 6) | SID315480577 | 2.38 | enough cells in well | 332 | 214
Tspyl4 (TSPY-like 4) | SID315474560 | – | fewer than 50 cells per well; well left out of calls | 252 | 64.4
Nt5e (5' nucleotidase, ecto) | SID315470254 | -0.13 | enough cells in well | 252 | 157
Hcrtr1 (hypocretin (orexin) receptor 1) | SID315478824 | 0.41 | enough cells in well | 251 | 232
Ap1s2 (adaptor-related protein complex 1, sigma 2 subunit) | SID315476666 | 0.17 | enough cells in well | 244 | 173
Aass (aminoadipate-semialdehyde synthase) | SID315470789 | 1.03 | enough cells in well | 192 | 236
Pum1 (pumilio RNA-binding family member 1) | SID315475758 | 0.69 | enough cells in well | 151 | 169
Med20 (mediator complex subunit 20) | SID315471676 | -0.5 | enough cells in well | 104 | 70
Or11g25 (olfactory receptor family 11 subfamily G member 25) | SID315479941 | -0.64 | enough cells in well | 78.7 | 33.7

Next results follow.
gene | PubChem SID | Tnf reporter robust z-score | fewer than 50 cells in well | Tnf reporter intensity, replicate 1 | Tnf reporter intensity, replicate 2
Idh2 (isocitrate dehydrogenase 2 (NADP+), mitochondrial) | SID315480898 | -0.51 | enough cells in well | 158 | 109
Exoc4 (exocyst complex component 4) | SID315469162 | – | fewer than 50 cells per well; well left out of calls | 86.3 | 83.2
Or4k49 (olfactory receptor family 4 subfamily K member 49) | SID315480513 | -0.94 | enough cells in well | 128 | 38.3
Tmem220 (transmembrane protein 220) | SID315481678 | -0.57 | enough cells in well | 135 | 128
H1f7 (H1.7 linker histone) | SID315473969 | -0.05 | enough cells in well | 206 | 84
Csrnp1 (cysteine-serine-rich nuclear protein 1) | SID315477928 | 0.83 | enough cells in well | 188 | 204
Msi1 (musashi RNA-binding protein 1) | SID315467991 | 1.18 | enough cells in well | 230 | 197
Pus10 (pseudouridylate synthase 10) | SID315474980 | -1.03 | enough cells in well | 108 | 103
Ap1s3 (adaptor-related protein complex AP-1, sigma 3) | SID315479910 | -0.99 | enough cells in well | 115 | 145
Arg1 (arginase, liver) | SID315465498 | – | fewer than 50 cells per well; well left out of calls | 121 | 144
Iapp (islet amyloid polypeptide) | SID315467358 | -0.99 | enough cells in well | 169 | 116
Grap (GRB2-related adaptor protein) | SID315474248 | -1.17 | enough cells in well | 179 | 121
Pclaf (PCNA clamp associated factor) | SID315473370 | – | fewer than 50 cells per well; well left out of calls | 132 | 56.1
Or8b39 (olfactory receptor family 8 subfamily B member 39) | SID315480099 | 2.53 | enough cells in well | 200 | 196
Carf (calcium response factor) | SID315479542 | -0.39 | enough cells in well | 132 | 131
Atp6v1e2 (ATPase, H+ transporting, lysosomal V1 subunit E2) | SID315475057 | -0.22 | enough cells in well | 182 | 129
Krtap4-13 (keratin associated protein 4-13) | SID315473809 | – | fewer than 50 cells per well; well left out of calls | 104 | 78.6
Hmcn2 (hemicentin 2) | SID315478591 | 0.3 | enough cells in well | 213 | 244
Tie1 | SID315469718 | 0.6 | enough cells in well | 220 | 152
Zg16 (zymogen granule protein 16) | SID315473703 | -0.28 | enough cells in well | 208 | 69.6
Or2ag2 (olfactory receptor family 2 subfamily AG member 2) | SID315480038 | 1.28 | enough cells in well | 140 | 276
C1qa (complement component 1, q subcomponent, alpha polypeptide) | SID315465691 | 2.1 | enough cells in well | 225 | 308
Bsg (basigin) | SID315465675 | 1.05 | enough cells in well | 146 | 289
Csnk1g1 (casein kinase 1, gamma 1) | SID315477891 | -0.13 | enough cells in well | 231 | 113
Ptprcap | SID315468810 | 0.43 | enough cells in well | 299 | 205
Nol9 (nucleolar protein 9) | SID315474823 | -0.21 | enough cells in well | 150 | 67.3
